Assay results published in patent publication US7422849.
These are yes or no findings as the source states them, for the method shown. Some entries that bind do so weakly or less than the wild type.

Chains of the proteins cited; added tags and fusions are not shown. Lines headed by an entry give the natural chain unless they say otherwise; changes in a name come on top.
UniProt P23727: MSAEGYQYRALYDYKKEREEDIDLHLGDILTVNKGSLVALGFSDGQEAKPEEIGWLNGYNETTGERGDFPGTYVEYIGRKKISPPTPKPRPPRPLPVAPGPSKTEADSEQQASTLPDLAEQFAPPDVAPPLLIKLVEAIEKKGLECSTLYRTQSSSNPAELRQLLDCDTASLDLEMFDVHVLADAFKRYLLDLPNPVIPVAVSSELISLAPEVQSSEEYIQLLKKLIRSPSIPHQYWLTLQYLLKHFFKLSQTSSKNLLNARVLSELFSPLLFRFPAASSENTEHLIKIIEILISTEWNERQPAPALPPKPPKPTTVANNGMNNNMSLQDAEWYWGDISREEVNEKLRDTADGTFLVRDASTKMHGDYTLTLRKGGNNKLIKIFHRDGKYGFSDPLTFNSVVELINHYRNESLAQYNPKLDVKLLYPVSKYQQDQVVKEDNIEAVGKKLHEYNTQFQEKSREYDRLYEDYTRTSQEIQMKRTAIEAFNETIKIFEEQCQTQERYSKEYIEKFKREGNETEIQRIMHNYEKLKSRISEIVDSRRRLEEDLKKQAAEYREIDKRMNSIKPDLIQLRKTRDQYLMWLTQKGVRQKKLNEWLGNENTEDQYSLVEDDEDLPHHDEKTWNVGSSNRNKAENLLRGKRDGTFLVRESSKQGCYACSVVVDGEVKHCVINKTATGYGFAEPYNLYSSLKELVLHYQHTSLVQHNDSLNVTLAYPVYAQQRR
UniProt P23726: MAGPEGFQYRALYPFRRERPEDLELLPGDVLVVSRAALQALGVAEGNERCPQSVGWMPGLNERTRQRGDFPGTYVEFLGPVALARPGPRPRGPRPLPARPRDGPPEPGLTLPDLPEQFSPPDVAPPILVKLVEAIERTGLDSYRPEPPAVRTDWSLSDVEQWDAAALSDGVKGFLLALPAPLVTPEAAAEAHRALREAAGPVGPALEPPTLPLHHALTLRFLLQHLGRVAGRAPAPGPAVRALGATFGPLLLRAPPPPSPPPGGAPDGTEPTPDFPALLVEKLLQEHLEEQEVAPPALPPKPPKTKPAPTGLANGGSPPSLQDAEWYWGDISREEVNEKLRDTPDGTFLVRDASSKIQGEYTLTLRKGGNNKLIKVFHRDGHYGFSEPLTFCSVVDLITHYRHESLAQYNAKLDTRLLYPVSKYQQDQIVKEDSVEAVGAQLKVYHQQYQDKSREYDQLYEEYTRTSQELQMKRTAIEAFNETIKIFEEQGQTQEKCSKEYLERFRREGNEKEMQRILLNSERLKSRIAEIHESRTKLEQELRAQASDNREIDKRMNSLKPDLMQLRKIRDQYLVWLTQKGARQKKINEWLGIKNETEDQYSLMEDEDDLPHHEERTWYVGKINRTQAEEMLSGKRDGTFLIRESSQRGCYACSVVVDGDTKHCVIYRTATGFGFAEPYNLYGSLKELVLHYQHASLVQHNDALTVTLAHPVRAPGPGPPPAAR
UniProt P42336: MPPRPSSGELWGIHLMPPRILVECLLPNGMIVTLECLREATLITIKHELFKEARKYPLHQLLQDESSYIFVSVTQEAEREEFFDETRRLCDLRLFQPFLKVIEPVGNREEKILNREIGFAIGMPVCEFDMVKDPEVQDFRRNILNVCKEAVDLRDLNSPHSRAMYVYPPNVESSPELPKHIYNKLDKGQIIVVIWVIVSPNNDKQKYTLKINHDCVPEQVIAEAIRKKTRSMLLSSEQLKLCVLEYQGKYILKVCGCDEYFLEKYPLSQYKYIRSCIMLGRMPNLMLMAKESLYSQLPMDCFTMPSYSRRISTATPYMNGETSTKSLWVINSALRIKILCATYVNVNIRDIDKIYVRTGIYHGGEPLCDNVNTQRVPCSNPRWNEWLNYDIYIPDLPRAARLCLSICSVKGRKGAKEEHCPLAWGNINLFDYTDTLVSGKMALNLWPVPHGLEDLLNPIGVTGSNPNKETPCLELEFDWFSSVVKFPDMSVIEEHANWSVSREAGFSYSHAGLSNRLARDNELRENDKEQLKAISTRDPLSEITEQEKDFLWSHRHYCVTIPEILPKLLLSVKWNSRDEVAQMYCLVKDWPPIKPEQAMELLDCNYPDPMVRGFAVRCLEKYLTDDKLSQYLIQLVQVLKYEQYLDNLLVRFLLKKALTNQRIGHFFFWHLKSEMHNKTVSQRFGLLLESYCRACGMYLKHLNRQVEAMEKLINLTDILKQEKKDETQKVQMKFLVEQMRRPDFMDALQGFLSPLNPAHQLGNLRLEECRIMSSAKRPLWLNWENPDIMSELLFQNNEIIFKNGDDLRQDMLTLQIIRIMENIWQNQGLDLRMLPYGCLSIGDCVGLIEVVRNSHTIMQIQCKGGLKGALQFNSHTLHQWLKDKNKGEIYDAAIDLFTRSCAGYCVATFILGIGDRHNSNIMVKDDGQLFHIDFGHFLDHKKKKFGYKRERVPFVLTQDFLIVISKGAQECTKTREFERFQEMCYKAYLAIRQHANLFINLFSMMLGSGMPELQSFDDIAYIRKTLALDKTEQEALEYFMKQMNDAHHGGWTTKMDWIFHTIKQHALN
UniProt P32871: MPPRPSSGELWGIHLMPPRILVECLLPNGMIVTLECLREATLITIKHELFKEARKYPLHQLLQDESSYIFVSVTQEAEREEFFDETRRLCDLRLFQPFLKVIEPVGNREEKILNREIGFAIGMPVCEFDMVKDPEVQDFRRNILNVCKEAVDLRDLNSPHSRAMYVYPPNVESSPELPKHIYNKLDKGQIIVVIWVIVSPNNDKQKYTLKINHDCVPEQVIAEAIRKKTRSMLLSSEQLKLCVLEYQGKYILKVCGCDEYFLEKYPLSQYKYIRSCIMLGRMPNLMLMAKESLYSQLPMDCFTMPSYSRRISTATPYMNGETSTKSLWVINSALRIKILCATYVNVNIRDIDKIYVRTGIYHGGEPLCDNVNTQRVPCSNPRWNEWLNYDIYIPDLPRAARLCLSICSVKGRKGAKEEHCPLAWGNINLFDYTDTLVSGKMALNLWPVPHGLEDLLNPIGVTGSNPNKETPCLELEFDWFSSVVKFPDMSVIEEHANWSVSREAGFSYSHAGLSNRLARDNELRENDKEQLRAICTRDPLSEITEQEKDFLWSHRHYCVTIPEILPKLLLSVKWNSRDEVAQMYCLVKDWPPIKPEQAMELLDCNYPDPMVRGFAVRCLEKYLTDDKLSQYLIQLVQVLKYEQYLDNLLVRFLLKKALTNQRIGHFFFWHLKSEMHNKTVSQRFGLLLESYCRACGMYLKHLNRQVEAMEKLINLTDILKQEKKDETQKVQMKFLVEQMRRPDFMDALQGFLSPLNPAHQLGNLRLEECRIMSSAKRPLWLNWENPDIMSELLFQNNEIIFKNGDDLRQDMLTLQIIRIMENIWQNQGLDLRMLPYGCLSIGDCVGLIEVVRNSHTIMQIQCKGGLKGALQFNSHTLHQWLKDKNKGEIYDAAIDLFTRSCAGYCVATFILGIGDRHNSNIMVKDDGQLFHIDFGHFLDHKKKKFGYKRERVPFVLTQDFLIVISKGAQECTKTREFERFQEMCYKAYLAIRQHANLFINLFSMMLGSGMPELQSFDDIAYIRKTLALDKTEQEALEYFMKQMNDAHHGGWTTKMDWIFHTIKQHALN

Key:
bovine p85α (bovine) [1] = molecular target: bovine p85α (bovine) (UniProt P23727); assay: deletion mutants and PCR fragments of p110-N; retention of p85
bovine p85β (bovine) [2] = molecular target: bovine p85β (bovine) (UniProt P23726); assay: as above
bovine p85α (bovine) [3] = molecular target: bovine p85α (bovine) (UniProt P23727); assay: GST fusion on glutathione sepharose retaining p85 purified from baculovirus; SDS-PAGE
bovine p85β (bovine) [4] = molecular target: bovine p85β (bovine) (UniProt P23726); assay: as above

binding (bovine p85α (bovine) [1]) | binding (bovine p85β (bovine) [2]) | binding (bovine p85α (bovine) [3]) | binding (bovine p85β (bovine) [4]) | Substance
binds | binds |  |  | domain containing amino acids 19-110 of human p110 (from UniProt P42336 19-110)
 |  | binds | binds | p110-N (amino acids 1-128 of human p110), GST fusion protein (from UniProt P32871 1-128)
